From PubChem BioAssay AID200 (DTP/NCI, 2004)
The list does not hold the whole screen: it is rich in T/C values a quarter to a half above the control, in often repeated tests (any T/C) and in doses without a T/C. Other doses and runs of a compound stand elsewhere. T/C: endpoint of the treated group in % of that of the vehicle group. Some doses have a count of surviving animals in place of a T/C: the source files T/C as zero there, which appears to mark a toxic dose or a test without result, not a measured value. Some survivor counts are full or nearly so, which does not show that the dose was tolerated: the source hardly ever lists a survival T/C far under the control, and the zero likely stands for such cases as well. Counts of survivors are from the toxicity check (mostly the fifth day) where no day follows; animals may have died later. Schedule codes are those of the source, taken here to give the interval after Q, in days (D) or hours (H), and the number of doses after X. Some doses were run more than once; the values are given in rising order. Brackets with × count equal records among those shown. Some molecules as drawn cover several salts, stereoisomers or complexes of the source; a dose is that of the sample tested. For survival time, this PubChem deposit counts one and a half times the control or more as active, and values a quarter to a half above the control carry no call in these data; other NCI protocols may use other cut-offs. Some T/C values carry the count of animals alive at the toxicity check (mostly the fifth day); without a count, all were alive then.

Tested on: B6C3F1 mice, B16 melanoma ip, median survival T/C
Assay: NCI In Vivo Anticancer Drug Screen. Data for tumor model B16 Melanoma (intraperitoneal) in B6C3F1 mice
Conditions: T/C endpoint: median survival time, higher T/C = longer survival
Method in brief: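 Mice bearing transplanted tumor were dosed with compound or vehicle, and survival was recorded. Activity is expressed as the treated-group measurement (T) divided by the vehicle control measurement (C).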

[1] = dose: 200.0 mg/kg/injection, schedule: Q01DX009 (ip), vehicle: saline
[2] = dose: 10.0 mg/kg/injection, schedule: Q01DX009 (ip), vehicle: saline with Tween-80
[3] = dose: 20.0 mg/kg/injection, schedule: Q01DX009 (ip), vehicle: saline with Tween-80
[4] = dose: 40.0 mg/kg/injection, schedule: Q01DX009 (ip), vehicle: saline with Tween-80
[5] = dose: 12.0 mg/kg/injection, schedule: Q01DX009 (ip), vehicle: saline with Tween-80
[6] = dose: 12.5 mg/kg/injection, schedule: Q01DX009 (ip), vehicle: saline with Tween-80
[7] = dose: 25.0 mg/kg/injection, schedule: Q01DX009 (ip), vehicle: saline with Tween-80
[8] = dose: 800.0 mg/kg/injection, schedule: Q01DX009 (ip), vehicle: saline
[9] = dose: 100.0 mg/kg/injection, schedule: Q01DX009 (ip), vehicle: saline with Tween-80
[10] = dose: 200.0 mg/kg/injection, schedule: Q01DX009 (ip), vehicle: saline with Tween-80

Q: With `O=C(O)CSC(CC(=O)O)C(=O)O` (centres undefined) as the compound, how does the survivor count [1] read?
A: 10 of 10

Q: What does the source list for `CCC(=O)[O][Bi]([c]1ccccc1)[c]1ccccc1`?
A: survivor count (dose: 50.0 mg/kg/injection, schedule: Q01DX009 (ip), vehicle: Klucel (hydroxypropylcellulose) (HPC)): 6 of 10; survivor count (dose: 100.0 mg/kg/injection, schedule: Q01DX009 (ip), vehicle: Klucel (hydroxypropylcellulose) (HPC)): 0 of 10; survivor count (dose: 200.0 mg/kg/injection, schedule: Q01DX009 (ip), vehicle: Klucel (hydroxypropylcellulose) (HPC)): 0 of 10; survivor count (dose: 400.0 mg/kg/injection, schedule: Q01DX009 (ip), vehicle: Klucel (hydroxypropylcellulose) (HPC)): 0 of 10

Q: What does the source list for `C/C(=N\NC(=O)c1ccncc1)c1ccc(Cl)cc1`?
A: survivor count [2]: 1 of 10; survivor count [3]: 1 of 10; survivor count [4]: 0 of 10

Q: What does the source list for `[CH3][Sn]([CH3])([Cl])[S]CCN`?
A: survivor count (dose: 25.0 mg/kg/injection, schedule: Q01DX009 (ip), vehicle: saline): 10 of 10; survivor count (dose: 50.0 mg/kg/injection, schedule: Q01DX009 (ip), vehicle: saline): 6 of 10

Q: For `COc1cc2c(oc(=O)c3cc(C)cc(OC)c32)c2c(C3OC(C)C(O)C(C)(O)C3O)ccc(O)c12` (centres undefined), which survivor count (dose: 1.5 mg/kg/injection, schedule: Q01DX009 (ip), vehicle: DMSO) is on record?
A: 10 of 10

Q: And the T/C (dose: 1.57 mg/kg/injection, schedule: Q01DX009 (ip), vehicle: DMSO)?
A: 128 % of control

Q: What about the survivor count (dose: 3.0 mg/kg/injection, schedule: Q01DX009 (ip), vehicle: DMSO) of the same compound?
A: 7 of 9

Q: What about the T/C (dose: 3.13 mg/kg/injection, schedule: Q01DX009 (ip), vehicle: DMSO) of the same compound?
A: 125 % of control

Q: What about the T/C (dose: 12.5 mg/kg/injection, schedule: Q01DX009 (ip), vehicle: DMSO) of the same compound?
A: 135 and 144 % of control

Q: And the T/C (dose: 25.0 mg/kg/injection, schedule: Q01DX009 (ip), vehicle: DMSO)?
A: 110, 123 [8 of 10 alive], 135, 169 % of control

Q: How did the survivor count (dose: 124.0 mg/kg/injection, schedule: Q01DX009 (ip), vehicle: water) turn out when `CN1CCN(CN2C(=O)C3C4C=CC(C3C2=O)C2C3C(=O)N(CN5CCN(C)CC5)C(=O)C3C42)CC1` (centres undefined) was run?
A: 6 of 10

Q: And the survivor count (dose: 166.7 mg/kg/injection, schedule: Q01DX009 (ip), vehicle: water)?
A: 2 of 10

Q: How did the T/C (dose: 3.12 mg/kg/injection, schedule: Q01DX009 (ip), vehicle: saline with Tween-80) turn out when `Nc1nc(N)c2c(ccc3c2ccn3Cc2cccc([N+](=O)[O-])c2)n1` was run?
A: 125 % of control

Q: And the survivor count (dose: 6.25 mg/kg/injection, schedule: Q01DX009 (ip), vehicle: saline with Tween-80)?
A: 10 of 10

Q: And the T/C [5]?
A: 146 % of control

Q: What about the survivor count [5] of the same compound?
A: 10 of 10

Q: What about the survivor count [6] of the same compound?
A: 10 of 10

Q: What about the survivor count (dose: 24.0 mg/kg/injection, schedule: Q01DX009 (ip), vehicle: saline with Tween-80) of the same compound?
A: 10 of 10

Q: What about the survivor count [7] of the same compound?
A: 8 of 10

Q: For `CCCCCCCC(=O)[O][Hg][CH2]C1COC([CH2][Hg][O]C(=O)CCCCCCC)CO1` (centres undefined), which survivor count [7] is on record?
A: 10 of 10

Q: And the survivor count (dose: 50.0 mg/kg/injection, schedule: Q01DX009 (ip), vehicle: saline with Tween-80)?
A: 0 of 10 and 4 of 10

Q: With `O=C[C@@H](CO)O[C@H](C=O)c1c[nH]c(=O)[nH]c1=O` as the compound, how does the survivor count (dose: 100.0 mg/kg/injection, schedule: Q01DX009 (ip), vehicle: saline) read?
A: 1 of 10

Q: And the survivor count [1]?
A: 0 of 10

Q: What about the survivor count (dose: 400.0 mg/kg/injection, schedule: Q01DX009 (ip), vehicle: saline) of the same compound?
A: 0 of 10

Q: For `COC(=O)C(N)Cc1ccc(O)c(O)c1` (centres undefined), which survivor count (dose: 50.0 mg/kg/injection, schedule: Q08HX120 (ip), vehicle: saline) is on record?
A: 6 of 6

Q: What about the survivor count (dose: 600.0 mg/kg/injection, schedule: Q01DX012 (ip), vehicle: saline) of the same compound?
A: 6 of 10

Q: And the survivor count (dose: 600.0 mg/kg/injection, schedule: Q01DX024 (ip), vehicle: saline)?
A: 5 of 10

Q: What about the T/C [8] of the same compound?
A: 127 % of control [9 of 10 alive]

Q: What about the survivor count [8] of the same compound?
A: 5 of 10

Q: And the survivor count (dose: 800.0 mg/kg/injection, schedule: Q01DX024 (ip), vehicle: saline)?
A: 5 of 10

Q: What about the survivor count (dose: 1600.0 mg/kg/injection, schedule: Q01DX009 (ip), vehicle: saline) of the same compound?
A: 1 of 10

Q: With `C/C=C/C=C\C=C/C(O)CC(OP(=O)(O)O)C(C)(O)/C=C/C1CC=CC(=O)O1` (centres undefined) as the compound, how does the T/C (dose: 1.5 mg/kg/injection, schedule: Q01DX009 (ip), vehicle: water) read?
A: 125, 130, 138 % of control

Q: What about the T/C (dose: 3.0 mg/kg/injection, schedule: Q01DX009 (ip), vehicle: water) of the same compound?
A: 125, 135, 146 % of control

Q: And the survivor count (dose: 6.0 mg/kg/injection, schedule: Q01DX009 (ip), vehicle: water)?
A: 10 of 10

Q: And the survivor count (dose: 12.0 mg/kg/injection, schedule: Q01DX009 (ip), vehicle: water)?
A: 6 of 10 and 9 of 10

Q: How did the survivor count (dose: 5.0 mg/kg/injection, schedule: Q01DX009 (ip), vehicle: saline with Tween-80) turn out when `CCN1/C(=C/C=C/C=C\C=C\c2sc3ccc4ccccc4c3[n+]2CC)Sc2ccc3ccccc3c21` was run?
A: 10 of 10

Q: What about the survivor count (dose: 5.0 mg/kg/injection, schedule: Q01DX009 (ip), vehicle: saline) of the same compound?
A: 10 of 10

Q: And the survivor count [2]?
A: 9 of 10

Q: What about the survivor count (dose: 10.0 mg/kg/injection, schedule: Q01DX009 (ip), vehicle: saline) of the same compound?
A: 10 of 10

Q: What about the survivor count [3] of the same compound?
A: 10 of 10

Q: And the survivor count (dose: 20.0 mg/kg/injection, schedule: Q01DX009 (ip), vehicle: saline)?
A: 10 of 10

Q: And the survivor count [4]?
A: 7 of 10

Q: What about the survivor count (dose: 40.0 mg/kg/injection, schedule: Q01DX009 (ip), vehicle: saline) of the same compound?
A: 10 of 10

Q: Which results are given for `BrC1CC(Br)c2c1c1c(c3c2C(Br)CC3Br)C(Br)CC1Br` (centres undefined)?
A: T/C (dose: 50.0 mg/kg/injection, schedule: Q01DX009 (ip), vehicle: saline with Tween-80, evaluated on day 45): 130 % of control; T/C (dose: 50.0 mg/kg/injection, schedule: Q01DX009 (ip), vehicle: saline with Tween-80, evaluated on day 60): 125 % of control; T/C [9]: 132 % of control; T/C [10]: 147 % of control; survivor count [10]: 10 of 10; survivor count (dose: 400.0 mg/kg/injection, schedule: Q01DX009 (ip), vehicle: saline with Tween-80): 8 of 10 and 10 of 10 (2×)

Q: What does the source list for `CNC(=O)Oc1ccc(S(=O)(=O)c2ccc(OC(=O)NC)cc2)cc1`?
A: survivor count [6]: 10 of 10; survivor count [9]: 10 of 10; survivor count [10]: 9 of 10

Q: `CCCCN(CCCC)CCNc1ccc(Cl)c2oc3cc(C)ccc3c(=O)c12` was tested. Which survivor count [1] did it give?
A: 10 of 10
